Experimental data as given in the supplement of paper PMC10849652.
The other results are listed elsewhere or left out.

Sequences of proteins named here, by UniProt entry; tags and fusion partners are left off. A change or cut given only in a name is not applied to a line headed by its entry.
UniProt Q9C0B7: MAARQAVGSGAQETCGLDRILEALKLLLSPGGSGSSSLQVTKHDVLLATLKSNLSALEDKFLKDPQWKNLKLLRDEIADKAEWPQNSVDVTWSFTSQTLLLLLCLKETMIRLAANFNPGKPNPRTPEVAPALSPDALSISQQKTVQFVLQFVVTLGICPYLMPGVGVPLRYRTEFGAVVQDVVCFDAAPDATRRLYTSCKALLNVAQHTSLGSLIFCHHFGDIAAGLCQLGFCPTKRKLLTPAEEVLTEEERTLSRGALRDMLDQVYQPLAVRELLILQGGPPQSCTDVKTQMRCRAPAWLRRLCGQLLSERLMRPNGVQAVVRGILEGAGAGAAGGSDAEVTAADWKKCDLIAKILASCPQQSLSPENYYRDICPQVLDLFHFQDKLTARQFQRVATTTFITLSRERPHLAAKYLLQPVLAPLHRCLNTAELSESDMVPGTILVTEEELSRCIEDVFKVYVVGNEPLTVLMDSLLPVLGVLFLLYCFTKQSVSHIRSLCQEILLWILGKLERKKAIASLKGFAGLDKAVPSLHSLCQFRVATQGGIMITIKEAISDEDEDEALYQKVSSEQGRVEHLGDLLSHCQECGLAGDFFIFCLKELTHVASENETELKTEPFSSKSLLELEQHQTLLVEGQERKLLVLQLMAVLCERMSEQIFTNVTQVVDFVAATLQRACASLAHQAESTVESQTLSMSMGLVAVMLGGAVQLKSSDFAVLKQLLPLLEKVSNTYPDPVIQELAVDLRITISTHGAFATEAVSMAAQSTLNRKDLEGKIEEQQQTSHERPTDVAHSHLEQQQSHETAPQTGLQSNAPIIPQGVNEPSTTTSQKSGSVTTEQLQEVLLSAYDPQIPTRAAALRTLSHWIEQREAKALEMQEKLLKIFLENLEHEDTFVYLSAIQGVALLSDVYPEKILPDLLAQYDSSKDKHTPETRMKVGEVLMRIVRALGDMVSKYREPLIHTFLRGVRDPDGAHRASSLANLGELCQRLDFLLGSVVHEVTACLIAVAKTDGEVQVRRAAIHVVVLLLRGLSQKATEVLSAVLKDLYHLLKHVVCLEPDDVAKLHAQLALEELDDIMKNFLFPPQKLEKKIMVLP
UniProt Q9Y2W6: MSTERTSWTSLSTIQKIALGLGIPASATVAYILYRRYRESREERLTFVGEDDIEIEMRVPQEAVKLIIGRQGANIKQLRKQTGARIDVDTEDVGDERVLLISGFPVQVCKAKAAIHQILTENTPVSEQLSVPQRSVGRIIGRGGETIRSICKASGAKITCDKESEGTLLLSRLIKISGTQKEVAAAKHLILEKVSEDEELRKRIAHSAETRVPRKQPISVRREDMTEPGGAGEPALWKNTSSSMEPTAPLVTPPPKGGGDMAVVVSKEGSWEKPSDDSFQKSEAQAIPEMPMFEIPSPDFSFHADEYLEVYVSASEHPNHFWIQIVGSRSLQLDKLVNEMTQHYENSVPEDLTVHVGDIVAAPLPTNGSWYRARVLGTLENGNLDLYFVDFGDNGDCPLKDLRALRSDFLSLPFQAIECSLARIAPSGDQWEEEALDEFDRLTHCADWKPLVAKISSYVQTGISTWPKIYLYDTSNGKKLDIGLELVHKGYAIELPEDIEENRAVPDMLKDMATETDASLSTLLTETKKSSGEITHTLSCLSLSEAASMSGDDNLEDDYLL
UniProt Q9Y4R8, whole entry, looked up: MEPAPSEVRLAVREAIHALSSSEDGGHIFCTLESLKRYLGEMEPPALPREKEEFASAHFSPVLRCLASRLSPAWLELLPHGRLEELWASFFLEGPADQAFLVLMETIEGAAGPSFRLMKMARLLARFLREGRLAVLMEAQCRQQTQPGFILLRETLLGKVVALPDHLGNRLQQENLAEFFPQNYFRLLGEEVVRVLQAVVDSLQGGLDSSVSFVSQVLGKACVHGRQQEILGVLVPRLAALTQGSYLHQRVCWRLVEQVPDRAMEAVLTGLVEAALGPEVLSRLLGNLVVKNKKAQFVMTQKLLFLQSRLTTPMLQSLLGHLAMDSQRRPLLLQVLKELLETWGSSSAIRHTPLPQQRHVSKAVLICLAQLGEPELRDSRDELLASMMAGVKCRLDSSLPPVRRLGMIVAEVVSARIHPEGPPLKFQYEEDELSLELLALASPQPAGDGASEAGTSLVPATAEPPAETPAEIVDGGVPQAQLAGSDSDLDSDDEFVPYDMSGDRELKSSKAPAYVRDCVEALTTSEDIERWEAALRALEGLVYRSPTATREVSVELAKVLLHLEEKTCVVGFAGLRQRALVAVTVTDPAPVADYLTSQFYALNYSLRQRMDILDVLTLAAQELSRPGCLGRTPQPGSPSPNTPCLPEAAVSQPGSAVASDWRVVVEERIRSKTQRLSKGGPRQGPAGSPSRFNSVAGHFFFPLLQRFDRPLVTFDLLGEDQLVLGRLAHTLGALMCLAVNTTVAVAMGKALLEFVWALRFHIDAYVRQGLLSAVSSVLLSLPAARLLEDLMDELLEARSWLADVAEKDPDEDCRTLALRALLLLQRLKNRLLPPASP
UniProt Q9H7E2: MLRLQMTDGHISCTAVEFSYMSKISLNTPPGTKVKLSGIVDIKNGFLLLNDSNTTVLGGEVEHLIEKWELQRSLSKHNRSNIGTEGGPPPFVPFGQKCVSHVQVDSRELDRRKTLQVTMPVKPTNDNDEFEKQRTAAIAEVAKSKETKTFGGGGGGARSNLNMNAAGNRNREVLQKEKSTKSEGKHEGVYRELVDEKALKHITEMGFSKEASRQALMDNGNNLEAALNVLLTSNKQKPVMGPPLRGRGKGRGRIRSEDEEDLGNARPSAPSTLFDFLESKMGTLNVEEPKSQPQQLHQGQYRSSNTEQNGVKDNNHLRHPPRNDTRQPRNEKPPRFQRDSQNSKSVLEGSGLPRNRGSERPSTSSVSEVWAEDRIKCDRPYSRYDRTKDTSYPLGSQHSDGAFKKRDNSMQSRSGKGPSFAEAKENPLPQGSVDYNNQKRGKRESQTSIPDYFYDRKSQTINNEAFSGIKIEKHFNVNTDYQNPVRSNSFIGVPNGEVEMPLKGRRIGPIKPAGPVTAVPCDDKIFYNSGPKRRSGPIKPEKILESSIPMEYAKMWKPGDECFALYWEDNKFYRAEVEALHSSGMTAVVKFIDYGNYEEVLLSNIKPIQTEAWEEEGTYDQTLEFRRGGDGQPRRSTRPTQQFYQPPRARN
UniProt Q5JUR7: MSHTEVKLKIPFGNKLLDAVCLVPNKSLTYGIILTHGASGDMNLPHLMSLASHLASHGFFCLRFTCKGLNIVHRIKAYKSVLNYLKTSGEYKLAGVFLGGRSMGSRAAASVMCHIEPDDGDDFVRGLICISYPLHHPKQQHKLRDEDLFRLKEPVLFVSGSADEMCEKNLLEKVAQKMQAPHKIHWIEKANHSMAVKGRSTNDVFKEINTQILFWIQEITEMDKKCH
UniProt Q13428: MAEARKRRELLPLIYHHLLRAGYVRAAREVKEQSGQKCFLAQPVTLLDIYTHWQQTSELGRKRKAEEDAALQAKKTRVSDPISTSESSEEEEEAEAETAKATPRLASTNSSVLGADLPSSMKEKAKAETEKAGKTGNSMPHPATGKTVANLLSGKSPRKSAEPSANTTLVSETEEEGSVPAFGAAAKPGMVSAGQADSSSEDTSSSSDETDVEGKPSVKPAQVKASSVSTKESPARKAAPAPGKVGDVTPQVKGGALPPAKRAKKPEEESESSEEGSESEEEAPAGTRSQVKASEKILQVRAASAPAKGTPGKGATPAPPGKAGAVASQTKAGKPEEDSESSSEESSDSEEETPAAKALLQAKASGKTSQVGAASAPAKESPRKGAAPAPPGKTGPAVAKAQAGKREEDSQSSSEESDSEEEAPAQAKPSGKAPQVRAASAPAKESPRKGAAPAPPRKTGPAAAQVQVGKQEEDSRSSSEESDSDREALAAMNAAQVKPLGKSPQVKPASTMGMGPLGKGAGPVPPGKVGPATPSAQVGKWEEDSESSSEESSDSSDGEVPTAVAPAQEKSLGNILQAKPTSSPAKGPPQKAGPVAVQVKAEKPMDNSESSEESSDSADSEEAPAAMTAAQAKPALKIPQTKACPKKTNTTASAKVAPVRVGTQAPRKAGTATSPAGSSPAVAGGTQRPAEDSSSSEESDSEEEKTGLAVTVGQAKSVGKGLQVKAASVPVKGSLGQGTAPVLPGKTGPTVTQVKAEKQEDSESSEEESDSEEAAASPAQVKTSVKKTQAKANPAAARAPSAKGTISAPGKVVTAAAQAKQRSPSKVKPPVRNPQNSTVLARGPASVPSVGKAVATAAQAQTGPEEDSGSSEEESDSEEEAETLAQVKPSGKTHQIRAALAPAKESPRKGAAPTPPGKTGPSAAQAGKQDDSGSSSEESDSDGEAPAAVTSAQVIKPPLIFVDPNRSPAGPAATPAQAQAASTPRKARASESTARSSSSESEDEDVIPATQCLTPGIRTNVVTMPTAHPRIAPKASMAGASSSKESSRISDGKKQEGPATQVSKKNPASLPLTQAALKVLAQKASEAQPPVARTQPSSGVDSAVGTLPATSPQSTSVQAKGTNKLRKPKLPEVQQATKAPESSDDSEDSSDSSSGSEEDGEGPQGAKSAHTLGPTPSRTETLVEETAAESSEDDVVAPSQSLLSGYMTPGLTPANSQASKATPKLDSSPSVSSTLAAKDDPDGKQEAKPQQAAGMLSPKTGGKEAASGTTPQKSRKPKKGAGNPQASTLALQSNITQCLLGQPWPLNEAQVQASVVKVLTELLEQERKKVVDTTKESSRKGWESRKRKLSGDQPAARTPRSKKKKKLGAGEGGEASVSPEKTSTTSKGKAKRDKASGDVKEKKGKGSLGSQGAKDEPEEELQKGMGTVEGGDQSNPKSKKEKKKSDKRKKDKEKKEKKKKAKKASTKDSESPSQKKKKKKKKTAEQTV
UniProt P62380: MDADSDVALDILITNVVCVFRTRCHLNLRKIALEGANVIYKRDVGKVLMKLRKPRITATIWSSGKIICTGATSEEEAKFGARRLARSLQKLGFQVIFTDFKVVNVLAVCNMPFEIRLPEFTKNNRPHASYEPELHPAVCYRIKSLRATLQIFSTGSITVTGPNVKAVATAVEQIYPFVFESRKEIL
UniProt Q96BS2: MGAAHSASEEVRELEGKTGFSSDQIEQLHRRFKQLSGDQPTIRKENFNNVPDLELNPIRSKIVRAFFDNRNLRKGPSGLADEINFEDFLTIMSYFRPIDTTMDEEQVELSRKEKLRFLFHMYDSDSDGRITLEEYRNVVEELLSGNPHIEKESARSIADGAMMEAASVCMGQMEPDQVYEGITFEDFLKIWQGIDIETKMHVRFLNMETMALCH
UniProt Q9P0N9: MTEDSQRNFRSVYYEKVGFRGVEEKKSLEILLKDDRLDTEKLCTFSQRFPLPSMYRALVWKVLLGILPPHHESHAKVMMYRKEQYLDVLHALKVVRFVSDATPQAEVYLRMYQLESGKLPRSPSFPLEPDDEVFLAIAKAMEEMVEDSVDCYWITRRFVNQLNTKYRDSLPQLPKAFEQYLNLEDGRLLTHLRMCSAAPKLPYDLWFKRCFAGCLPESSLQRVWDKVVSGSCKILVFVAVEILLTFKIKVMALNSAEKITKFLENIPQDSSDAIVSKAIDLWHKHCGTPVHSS
UniProt Q9Y4C2: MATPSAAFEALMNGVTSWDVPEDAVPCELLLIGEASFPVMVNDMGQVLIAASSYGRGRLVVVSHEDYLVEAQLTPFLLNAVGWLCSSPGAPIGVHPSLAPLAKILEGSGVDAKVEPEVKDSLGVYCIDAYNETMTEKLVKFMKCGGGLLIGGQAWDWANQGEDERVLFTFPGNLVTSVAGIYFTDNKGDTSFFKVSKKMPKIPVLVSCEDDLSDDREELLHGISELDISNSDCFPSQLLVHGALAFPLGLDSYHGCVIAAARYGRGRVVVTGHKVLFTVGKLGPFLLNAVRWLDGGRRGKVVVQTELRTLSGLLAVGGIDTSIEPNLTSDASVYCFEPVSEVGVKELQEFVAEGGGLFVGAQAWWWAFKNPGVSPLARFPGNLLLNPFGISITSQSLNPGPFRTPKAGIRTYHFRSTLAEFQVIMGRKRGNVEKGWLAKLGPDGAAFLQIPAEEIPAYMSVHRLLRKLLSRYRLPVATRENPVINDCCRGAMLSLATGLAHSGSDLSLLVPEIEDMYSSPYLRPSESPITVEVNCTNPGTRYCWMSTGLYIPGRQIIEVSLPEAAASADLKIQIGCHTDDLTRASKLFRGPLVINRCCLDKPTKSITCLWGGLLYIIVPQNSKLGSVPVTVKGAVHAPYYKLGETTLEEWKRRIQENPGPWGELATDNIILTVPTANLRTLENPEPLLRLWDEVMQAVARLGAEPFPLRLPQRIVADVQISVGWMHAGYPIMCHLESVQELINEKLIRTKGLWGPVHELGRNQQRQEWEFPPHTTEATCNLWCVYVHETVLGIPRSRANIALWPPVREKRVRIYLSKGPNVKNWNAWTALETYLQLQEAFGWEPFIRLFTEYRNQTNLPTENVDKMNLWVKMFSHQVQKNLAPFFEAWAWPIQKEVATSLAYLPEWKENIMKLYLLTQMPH

Columns and labels:
Assay in all cases: log2 fold change, soluble protein after heating vs DMSO (PISA); higher = thermal stabilisation; K562 lysate, 10 uM; active = over 0.2 and 3.5 SD of the protein, either way, in both replicates (recomputed)
alvocidib = compound: CN1CC[C@H](c2c(O)cc(O)c3c(=O)cc(-c4ccccc4Cl)oc23)[C@H](O)C1 [alvocidib]
How it was run: (§1)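 K562 pellets were dounce-homogenised in PBS pH 7.4 containing 1 mM MgCl2, and the crude extract, at 1 mg/mL protein, was exposed to 10 μM compound for 30 min. Aliquots were heated for 3 min across 48°C-58°C, pooled, brought to 0.5% NP-40 at 4°C and spun at 21,000xg for 90 min, with the supernatant taken as soluble protein. TMTpro 16plex LC-MS/MS with equalised channel sums quantified that protein. Values are log-two fold changes in thermal stability relative to solvent controls, taken from duplicates.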

Tubastatin A = compound: CN1CCc2c(c3ccccc3n2Cc2ccc(C(=O)NO)cc2)C1 [Tubastatin A]
How it was run: as §1

[1] = compound: CNC(=O)C1=CC=CC=C1NC2=NC(=NC=C2Cl)NC3=C(C=C(C=C3)N4CCOCC4)OC
How it was run: as §1

defactinib = compound: CNC(=O)c1ccc(Nc2ncc(C(F)(F)F)c(NCc3nccnc3N(C)S(C)(=O)=O)n2)cc1 [defactinib]
How it was run: as §1

[2] = compound: CNc1nc(-c2ccc3c(N)n[nH]c3c2)cc(N2C[C@@H](C(=O)NC3CCCCC3)CC[C@H]2C)n1
How it was run: as §1

encorafenib = compound: COC(=O)N[C@@H](C)CNc1nccc(-c2cn(C(C)C)nc2-c2cc(Cl)cc(NS(C)(=O)=O)c2F)n1 [encorafenib]
How it was run: as §1

[3] = compound: COC(=O)[C@H](CCSC)NC(=O)C1=C(C=C(C=C1)NC[C@H](CS)N)C2=CC=CC=C2
How it was run: as §1

alisertib = compound: COc1cc(Nc2ncc3c(n2)-c2ccc(Cl)cc2C(c2c(F)cccc2OC)=NC3)ccc1C(=O)O [alisertib]
How it was run: as §1

[4] = compound: COc1cc2nc(-c3cc(F)ccc3O)nc(N[C@@H]3CNC[C@H]3C(C)(C)O)c2cc1OC
How it was run: as §1

gefitinib = compound: COc1cc2ncnc(Nc3ccc(F)c(Cl)c3)c2cc1OCCCN1CCOCC1 [gefitinib]
How it was run: as §1

lapatinib = compound: CS(=O)(=O)CCNCc1ccc(-c2ccc3ncnc(Nc4ccc(OCc5cccc(F)c5)c(Cl)c4)c3c2)o1 [lapatinib]
How it was run: as §1

pictilisib = compound: CS(=O)(=O)N1CCN(Cc2cc3nc(-c4cccc5[nH]ncc45)nc(N4CCOCC4)c3s2)CC1 [pictilisib]
How it was run: as §1

crizotinib = compound: C[C@@H](Oc1cc(-c2cnn(C3CCNCC3)c2)cnc1N)c1c(Cl)ccc(F)c1Cl [crizotinib]
How it was run: as §1

[5] = compound: C[C@H](C1=CC=C(C=C1)C(=O)NC2=C3C=CNC3=NC=C2)N
How it was run: as §1

duvelisib = compound: C[C@H](Nc1ncnc2nc[nH]c12)c1cc2cccc(Cl)c2c(=O)n1-c1ccccc1 [duvelisib]
How it was run: as §1

gandotinib = compound: Cc1cc(Nc2cc(CN3CCOCC3)c3nc(C)c(Cc4ccc(Cl)cc4F)n3n2)n[nH]1 [gandotinib]
How it was run: as §1

tozasertib = compound: Cc1cc(Nc2cc(N3CCN(C)CC3)nc(Sc3ccc(NC(=O)C4CC4)cc3)n2)n[nH]1 [tozasertib]
How it was run: as §1

doramapimod = compound: Cc1ccc(-n2nc(C(C)(C)C)cc2NC(=O)Nc2ccc(OCCN3CCOCC3)c3ccccc23)cc1 [doramapimod]
How it was run: as §1

bafetinib = compound: Cc1ccc(NC(=O)c2ccc(CN3CC[C@H](N(C)C)C3)c(C(F)(F)F)c2)cc1Nc1nccc(-c2cncnc2)n1 [bafetinib]
How it was run: as §1

[6] = compound: Cc1cccc(CC(=O)N2CCc3c2ccc(-c2cn(C)c4ncnc(N)c24)c3F)n1
How it was run: as §1

Measured: log2 fold change

TANK (UniProt Q92844)
inactive: alvocidib 0.066 | Tubastatin A -0.043 | [1] 0.25 | defactinib 0.044 | [2] 0.068 | encorafenib -0.006 | alisertib -0.006 | [4] -0.024 | gefitinib -0.047 | lapatinib 0.038 | pictilisib -0.03 | crizotinib 0.27 | [5] 0.021 | duvelisib -0.026 | gandotinib 0.141 | tozasertib 0.108 | doramapimod -0.038 | bafetinib 0.023 | [6] -0.162
active: [3] -0.309

TBC1D24 (UniProt Q9ULP9)
inactive: alvocidib 0.008 | Tubastatin A -0.064 | [1] 0.022 | defactinib 0.001 | [2] -0.037 | encorafenib 0.025 | [3] 0.015 | alisertib 0.009 | [4] 0.019 | gefitinib 0.001 | lapatinib -0.05 | pictilisib 0.04 | crizotinib -0.147 | [5] -0.033 | duvelisib -0.065 | gandotinib -0.049 | tozasertib 0.016 | doramapimod 0.033 | bafetinib -0.039 | [6] 0.003

TANGO6 (UniProt Q9C0B7)
inactive: alvocidib -0.094 | Tubastatin A -0.031 | [1] -0.005 | defactinib -0.047 | [2] 0 | encorafenib -0.024 | [3] -0.009 | alisertib -0.022 | [4] 0.027 | gefitinib 0.117 | lapatinib -0.054 | pictilisib -0.002 | crizotinib -0.065 | [5] -0.102 | duvelisib 0.005 | gandotinib 0.037 | tozasertib -0.023 | doramapimod 0.014 | bafetinib -0.064 | [6] 0.115

TDRKH (UniProt Q9Y2W6)
inactive: alvocidib -0.017 | Tubastatin A -0.064 | [1] 0.019 | defactinib 0.033 | [2] 0.042 | encorafenib 0.007 | [3] 0.008 | alisertib -0.049 | [4] 0.04 | gefitinib 0.001 | lapatinib -0.069 | pictilisib -0.036 | crizotinib -0.083 | [5] -0.061 | duvelisib -0.028 | gandotinib 0.062 | tozasertib 0.081 | doramapimod -0.043 | bafetinib 0.02 | [6] 0.074

TGFB1 (UniProt P01137)
inactive: alvocidib -0.034 | Tubastatin A 0.024 | [1] 0.014 | defactinib 0.003 | [2] -0.011 | encorafenib -0.002 | [3] -0.019 | alisertib -0.042 | [4] -0.004 | gefitinib -0.007 | lapatinib -0.037 | pictilisib -0.019 | crizotinib 0.016 | [5] -0.056 | duvelisib 0.027 | gandotinib 0.052 | tozasertib -0.002 | doramapimod -0.026 | bafetinib -0.026 | [6] 0.027

TELO2 (UniProt Q9Y4R8)
inactive: alvocidib -0.01 | Tubastatin A -0.164 | [1] 0.035 | defactinib -0.008 | [2] -0.036 | encorafenib 0.003 | [3] 0.139 | alisertib 0.008 | [4] -0.009 | gefitinib 0.011 | lapatinib -0.016 | pictilisib -0.01 | crizotinib -0.053 | [5] -0.038 | duvelisib -0.015 | gandotinib -0.087 | tozasertib -0.012 | doramapimod 0.037 | bafetinib -0.054 | [6] 0.056

TDRD3 isoform 3 (UniProt Q9H7E2)
inactive: alvocidib 0.043 | Tubastatin A -0.08 | [1] 0.025 | defactinib 0.033 | [2] 0.097 | encorafenib -0.006 | [3] -0.029 | alisertib -0.084 | [4] -0.042 | gefitinib 0.297 | lapatinib 0.005 | pictilisib -0.038 | crizotinib 0.024 | [5] 0.127 | duvelisib -0.02 | gandotinib -0.068 | tozasertib 0.034 | doramapimod -0.151 | bafetinib 0.093 | [6] 0.01

TEX30 (UniProt Q5JUR7)
active: [5] -0.517
inactive: alvocidib -0.021 | Tubastatin A -0.066 | [1] 0.066 | defactinib -0.097 | [2] 0.07 | encorafenib 0.047 | [3] 0.007 | alisertib 0.101 | [4] 0.041 | gefitinib 0.058 | lapatinib -0.07 | pictilisib -0.122 | crizotinib -0.035 | duvelisib 0.102 | gandotinib 0.007 | tozasertib -0.003 | doramapimod 0.036 | bafetinib 0.066 | [6] 0.069

TCOF1 isoform 4 (UniProt Q13428)
inactive: alvocidib -0.029 | Tubastatin A 0.04 | [1] 0.005 | defactinib -0.002 | [2] 0.076 | encorafenib 0.009 | [3] -0.071 | alisertib -0.002 | [4] 0.005 | gefitinib 0.012 | lapatinib -0.018 | pictilisib -0.014 | crizotinib 0.024 | [5] -0.075 | duvelisib 0.005 | gandotinib 0.044 | tozasertib -0.003 | doramapimod 0.002 | bafetinib -0.032 | [6] 0.02

TBPL1 (UniProt P62380)
inactive: alvocidib -0.004 | Tubastatin A -0.003 | [1] 0.048 | defactinib -0.022 | [2] 0.009 | encorafenib -0.075 | [3] 0.031 | alisertib 0.005 | [4] 0.011 | gefitinib -0.021 | lapatinib -0.014 | pictilisib 0.031 | crizotinib -0.022 | [5] -0.07 | duvelisib -0.001 | gandotinib 0.07 | tozasertib 0.116 | doramapimod -0.024 | bafetinib -0.012 | [6] 0.01

TESC (UniProt Q96BS2)
inactive: alvocidib -0.037 | Tubastatin A 0.022 | [1] -0.008 | defactinib -0.007 | [2] -0.034 | encorafenib 0.033 | [3] -0.037 | alisertib -0.053 | [4] -0.058 | gefitinib 0.091 | lapatinib -0.03 | pictilisib -0.122 | crizotinib 0 | [5] -0.095 | duvelisib 0.026 | gandotinib -0.066 | tozasertib 0.026 | doramapimod 0.073 | bafetinib 0.048 | [6] 0.037

Two entries picked at random from the list so far:
TGFB1 (UniProt P01137)
inactive: alvocidib -0.034 | Tubastatin A 0.024 | [1] 0.014 | defactinib 0.003 | [2] -0.011 | encorafenib -0.002 | [3] -0.019 | alisertib -0.042 | [4] -0.004 | gefitinib -0.007 | lapatinib -0.037 | pictilisib -0.019 | crizotinib 0.016 | [5] -0.056 | duvelisib 0.027 | gandotinib 0.052 | tozasertib -0.002 | doramapimod -0.026 | bafetinib -0.026 | [6] 0.027

TBC1D24 (UniProt Q9ULP9)
inactive: alvocidib 0.008 | Tubastatin A -0.064 | [1] 0.022 | defactinib 0.001 | [2] -0.037 | encorafenib 0.025 | [3] 0.015 | alisertib 0.009 | [4] 0.019 | gefitinib 0.001 | lapatinib -0.05 | pictilisib 0.04 | crizotinib -0.147 | [5] -0.033 | duvelisib -0.065 | gandotinib -0.049 | tozasertib 0.016 | doramapimod 0.033 | bafetinib -0.039 | [6] 0.003

Next records

TBC1D7 (UniProt Q9P0N9)
inactive: alvocidib 0.018 | Tubastatin A -0.012 | [1] -0.011 | defactinib 0.063 | [2] -0.038 | encorafenib -0.007 | [3] 0.003 | alisertib -0.02 | [4] 0.051 | gefitinib -0.251 | lapatinib -0.118 | pictilisib -0.044 | crizotinib -0.056 | [5] -0.181 | duvelisib -0.013 | gandotinib 0.043 | tozasertib 0.049 | doramapimod 0.007 | bafetinib -0.004 | [6] 0.109

TCAF1 (UniProt Q9Y4C2)
inactive: alvocidib -0.004 | Tubastatin A -0.084 | [1] 0.009 | defactinib 0.016 | [2] -0.066 | encorafenib 0.011 | [3] 0.126 | alisertib 0.009 | [4] -0.002 | gefitinib -0.008 | lapatinib 0.012 | pictilisib -0.04 | crizotinib -0.024 | [5] 0.024 | duvelisib 0.036 | gandotinib -0.068 | tozasertib 0 | doramapimod -0.006 | bafetinib -0.053 | [6] -0.001

TBL3 (UniProt Q12788)
inactive: alvocidib -0.019 | Tubastatin A -0.08 | [1] 0.014 | defactinib 0.016 | [2] 0.01 | encorafenib -0.021 | [3] 0.072 | alisertib 0.015 | [4] 0.006 | gefitinib -0.123 | lapatinib -0.022 | pictilisib -0.027 | crizotinib -0.017 | [5] -0.028 | duvelisib -0.009 | gandotinib -0.05 | tozasertib -0.008 | doramapimod -0.024 | bafetinib -0.019 | [6] 0.04

TBC1D5 isoform 2 (UniProt Q92609)
inactive: alvocidib 0 | Tubastatin A -0.014 | [1] 0.032 | defactinib 0.009 | [2] 0.043 | encorafenib 0.026 | [3] -0.004 | alisertib -0.013 | [4] -0.005 | gefitinib -0.001 | lapatinib -0.002 | pictilisib -0.014 | crizotinib -0.045 | [5] 0.008 | duvelisib -0.036 | gandotinib -0.05 | tozasertib -0.011 | doramapimod 0.045 | bafetinib -0.011 | [6] 0.039
